Laboratory results published in article PMC10163288.
Some of the results follow.

B1: il2ra_site2_3nfp_sap_22_mot_ems_p1-15H-GBL-16H-GBL-14H_0089_0001_0001_0001_af2_000000072_0001_19_33_H_._HHH_b2_04595_0001_0000100001_0000001_0_0001 (protein)
chain: SSSSSSDEEEIEELLELVEKIDNRDERAHALMEASELAARLGDEELAREVLRLFAEIQSSSSSSS
B2: il2ra_site1_3nfp_sap_16_mot_HHH_b1_00461_af2_000000238_0001_1_17_H_._HHH_b2_08025_0001_0000300024_0000001_0_0001_af2pred_0001_af2pred_swapped (protein)
chain: SSSSSRILRFLEELARKAFERNDKKQLEAILKLIRKAAKQFKDEEVEELLELVEELLKKLSSSSS
B3: il2ra_site2_2erj_sap_22_mot_HHH_b1_00004_000000238_0001_1_17_H_._d9cc8bee132a485d0ac603caa35b40b0_0001_0001_0000400014_0000001_0_0001_af2pred_0001_af2pred (protein)
chain: SSSSSSEEVRRRVEELLEEAKKIEDYHEAFKVLQEASQIADEYDDEEIARLVHEVVRELSSSSSS
B4: il2ra_site2_2erj_sap_19_mot_d66c371ed59d2564589b99897c04b328_0001_000000241_0001_17_32_H_._2092974533909c8578d6a2c5de6c41b7_0001_1_0001_0000300016_0000001_0_000 … (protein)
chain: SSSSSSDIEERVEELLEEAKRIKDLREALRVLQEASQLADEQDDEELFEEITKVLRKLSSSSSSS
B5: il2ra_site1_1z92_normal_mot_HHH_b1_01565_af2_000000147_0001_1_17_H_._HHH_b2_00438_0001_0000400057_0000001_0 (protein)
chain: SSSSSTAVEAAAKAVAQAAGLSEEQEEELEKLARELLEEGYSELEILKILDERALELLESSSSSS
B6: il2ra_site1_1z92_sap_27_mot_HHH_b2_03302_000000138_0001_21_37_H_._HHH_b1_05567_0001_0000100001_0000001_0_0001_af2pred_dldesign_0_af2pred (protein)
chain: SSSSSSDKKEAVRLFNEANELCLAGKDEEAKEKLKKALELAKKAGANLLARMIELALKSLSSSSS
B7: il2ra_site1_3nfp_normal_mot_7cbdf275c6f204f9d60ac8802deb44b6_0001_1_000000034_0001_19_33_H_._HHH_b1_00853_af2_0001_0000200008_0000001_0 (protein)
chain: SSSSSRALEFAEELARKAFENNNEEQLRHLEKLVERALKQVGDPEAEELLKLIRELLEELSSSSS
B8: il2ra_site2_3nfp_normal_mot_HHH_b2_04451_000000238_0001_21_37_H_._HHH_b1_08573_0001_0000400020_0000001_0 (protein)
chain: SSSDEEERIEELIELVEELIKEGDRTEALQVLLEASELAAKLGDEELARILLELFLLLQEKSSSS
B9: il2ra_site2_2erj_sap_26_mot_HHH_b2_01204_af2_000000051_0001_19_34_H_._HHH_b2_07809_0001_0000700013_0000001_1_0001 (protein)
chain: SSSSDLHELFRLAVEIMRLIAEGDPEKAEELIQELRELIEETNSEAAKKILRHLERHLEESSSSS
B10: il2ra_site1_2b5i_normal_mot_HHH_b2_04910_000000118_0001_1_19_H_._HHH_b2_06803_af2_0001_0000100005_0000001_0_af2pred_dldesign_0_af2pred (protein)
chain: SSSSSSSKALELFLKANEAFQAGKYEEAKKLLEEALEEAKKNKENSILKMVESALKSLSSSSSSS
B11: il2ra_site1_1z92_normal_mot_922575b2e9738a49cb663a995786872c_0001_af2_000000234_0001_18_32_H_._ae2d1c0b5552e85e62693402b9c72bf7_0001_af2_0001_0000400024_0000001 … (protein)
chain: SRENEERIEEAIKKNDLELLKEHLRLLERLAGDPHLARQYLKLQIARLLGDPEEAEEIVEEIEKR
B12: il2ra_site1_1z92_sap_22_mot_HHH_b2_03816_af2_000000009_0001_40_54_H_._HHH_b1_06068_0001_0000300025_0000001_1_0001 (protein)
chain: DAVLRDLERTEKFFGNPENALKALVAALRDLGDPELQEIAEIIRELLERGVPPEEIKEIVKELVR
B13: il2ra_site2_3nfp_sap_26_mot_HHH_b1_03873_000000295_0001_37_55_H_._HHH_b2_02278_af2_0001_0000300022_0000001_0_0001_af2pred_0001_af2pred_1_swapped (protein)
chain: SSSSSHEELVKELRKELREAEEEGDEERLRQLAFLLIRLALELNDEELEELAKRLLHELWSSSSS
B14: il2ra_site1_3nfp_sap_17_mot_HHH_b1_06312_000000077_0001_1_18_H_._HHH_b1_02603_af2_0001_0000500014_0000001_0_0001_af2pred_0001_af2pred_1 (protein)
chain: SSSSDVEEFLEEIKEELREALEKGDARLAARIFKEASKKLREKGNPELAEELYEFLRKLISSSSS
B15: il2ra_site2_2erj_sap_21_mot_HHH_b2_01275_af2_000000073_0001_23_39_H_._HHH_b1_08366_af2_0001_0000500019_0000001_0_0001 (protein)
chain: SSSSNEELKKLYELLEEILRALHEGDEEKFEELLEELERLAEELDSENAKEIAEALRELGSSSSS
B16: il2ra_site2_3nfp_sap_18_mot_HHH_b1_04032_000000208_0001_43_56_H_._14fc6b67d8325dfdf4a09fbb2e7c13bb_0001_1_af2_0001_0000200004_0000001_1_0001 (protein)
chain: SSSSDVEEIAQELLEEAKELLERGNPREAAHVLAELATFLMRRNNRELLKEVNQLAYEILNSSSS
B17: il2ra_site2_3nfp_normal_mot_HHH_b1_00660_af2_000000090_0001_40_57_H_._HHH_b2_04195_0001_0000100015_0000001_0_af2pred_0001_1_af2pred_swapped (protein)
chain: SSSSSEEEEVRELLEQAKELLERGNPEEAEEILRRAADLAYEANNFELFAIISELLEKVDQSSSS
B18: il2ra_site2_3nfp_normal_mot_HHH_b1_01086_af2_000000264_0001_39_53_H_._HHH_b1_02927_0001_0000400028_0000001_0_af2pred_0001_1_af2pred_swapped (protein)
chain: SSSSSEEERLVKELLREAEEARENNDEELLAHLLAVAFSIALEINNEELQKEVEEVSQRLRSSSS

These binders were tested against il2ra, P01589 (assay: yeast display titration).

Apparent Kd, inactive:
B1 no binding seen
B2 no binding seen
B3 no binding seen
B4 no binding seen
B5 no binding seen
B6 no binding seen
B7 no binding seen
B8 no binding seen
B9 no binding seen
B10 no binding seen
B11 no binding seen
B12 no binding seen
B13 no binding seen
B14 no binding seen
B15 no binding seen
B16 no binding seen
B17 no binding seen
B18 no binding seen

A stretch from further up, for reference:
Apparent Kd, inactive:
B4 no binding seen
B5 no binding seen
B6 no binding seen
B7 no binding seen
